Test results: doi:10.1101/2021.08.20.457064
Residue numbers refer to the chain shown, from its start. Read-outs that look alike come from different tables or passages of the source. No constants are given. Whether binding was seen depends on the method and setting. Binding seen in cells or lysates may run through a third protein. Some binding calls cover weakened binding; strength is not graded here. For some assays here: Sequences can lack the tags named with a protein.

Chains of the proteins cited; added tags and fusions are not shown.
UniProt Q14318: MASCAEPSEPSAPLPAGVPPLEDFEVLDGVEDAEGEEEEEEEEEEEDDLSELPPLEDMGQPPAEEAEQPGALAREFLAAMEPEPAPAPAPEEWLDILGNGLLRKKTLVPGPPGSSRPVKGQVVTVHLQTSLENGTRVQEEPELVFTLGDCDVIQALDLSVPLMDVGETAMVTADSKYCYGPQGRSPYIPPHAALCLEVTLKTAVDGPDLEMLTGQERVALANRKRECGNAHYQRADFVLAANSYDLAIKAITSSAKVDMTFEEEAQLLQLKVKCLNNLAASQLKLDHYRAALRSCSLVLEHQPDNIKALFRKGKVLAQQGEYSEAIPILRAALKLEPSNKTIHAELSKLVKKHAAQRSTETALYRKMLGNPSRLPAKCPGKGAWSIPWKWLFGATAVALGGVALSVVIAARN
UniProt O35465: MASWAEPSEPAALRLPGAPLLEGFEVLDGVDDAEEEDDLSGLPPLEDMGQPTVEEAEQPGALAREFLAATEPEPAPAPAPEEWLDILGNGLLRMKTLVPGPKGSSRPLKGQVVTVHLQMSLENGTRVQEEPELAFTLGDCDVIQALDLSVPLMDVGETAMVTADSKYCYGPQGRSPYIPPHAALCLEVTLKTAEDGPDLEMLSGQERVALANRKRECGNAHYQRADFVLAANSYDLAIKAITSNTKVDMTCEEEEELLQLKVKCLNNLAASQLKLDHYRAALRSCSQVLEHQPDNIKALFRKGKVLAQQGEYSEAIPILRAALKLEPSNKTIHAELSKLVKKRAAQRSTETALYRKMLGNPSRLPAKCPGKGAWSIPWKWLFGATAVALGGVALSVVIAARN

T1: GFP-DLK (mouse) (UniProt Q60700)
T1 sequence: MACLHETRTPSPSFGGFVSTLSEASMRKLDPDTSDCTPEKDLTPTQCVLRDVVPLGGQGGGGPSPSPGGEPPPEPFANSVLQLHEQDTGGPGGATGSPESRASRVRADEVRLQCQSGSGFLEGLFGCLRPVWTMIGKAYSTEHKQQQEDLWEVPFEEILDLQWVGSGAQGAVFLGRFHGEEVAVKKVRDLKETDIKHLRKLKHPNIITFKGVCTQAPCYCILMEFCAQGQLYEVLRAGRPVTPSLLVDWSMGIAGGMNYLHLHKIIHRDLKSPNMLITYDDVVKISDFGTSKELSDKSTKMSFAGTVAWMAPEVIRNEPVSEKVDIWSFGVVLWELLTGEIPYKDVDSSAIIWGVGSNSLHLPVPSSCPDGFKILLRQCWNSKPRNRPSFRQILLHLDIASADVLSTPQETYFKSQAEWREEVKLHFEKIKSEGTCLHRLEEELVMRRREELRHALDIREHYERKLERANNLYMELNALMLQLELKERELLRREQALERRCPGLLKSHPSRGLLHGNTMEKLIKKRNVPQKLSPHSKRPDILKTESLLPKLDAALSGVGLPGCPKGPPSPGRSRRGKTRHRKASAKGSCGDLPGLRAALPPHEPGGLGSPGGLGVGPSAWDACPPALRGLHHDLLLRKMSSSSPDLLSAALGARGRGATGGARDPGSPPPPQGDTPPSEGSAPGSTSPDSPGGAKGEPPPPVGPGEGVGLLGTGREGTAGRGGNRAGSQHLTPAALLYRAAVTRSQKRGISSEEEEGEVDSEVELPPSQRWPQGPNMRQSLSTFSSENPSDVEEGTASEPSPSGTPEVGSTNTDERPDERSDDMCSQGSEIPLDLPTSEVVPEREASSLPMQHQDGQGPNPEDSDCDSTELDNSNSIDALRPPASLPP

T2: DLK K271R mutant (mouse) (UniProt Q60700)
T2 sequence: T1 sequence with K271R

B1: FLAG-FKBPL (protein, UniProt O35450 1-347)
chain: METSPISPMNEKNTAQPQQREENAQQILNTAIPFRQRSPGLLPEALKVGVRPDPANQIVETQEIEHPVAGFEGDSDQFQVSTNEMAEHLQASDLWYCPDGSFVKKIIVPGHGLDKPKLGSKCQVLALGFPFGSGMPEGWTELTIGIGQWREKMWGELMEKCLESMRQGEEAKIHLPGSSAPLAKLRLDSFTNGRDSWEMEAMEKEALAKEEHRRGTELFRAGNPQGAARCYGRALRLLLTLPPPGPPERTTLYANLAACQLLLGHPQLAAQSCDRVLEREPGHLKALYRRGVARAALGDLEKATADFKKVLAVDPKNRAAKEELGKVVIQGRKQDAGLARGLRKMFS
B2: human FKBP4 (protein, UniProt Q02790 1-459)
chain: MTAEEMKATESGAQSAPLPMEGVDISPKQDEGVLKVIKREGTGTEMPMIGDRVFVHYTGWLLDGTKFDSSLDRKDKFSFDLGKGEVIKAWDIAIATMKVGEVCHITCKPEYAYGSAGSPPKIPPNATLVFEVELFEFKGEDLTEEEDGGIIRRIQTRGEGYAKPNEGAIVEVALEGYYKDKLFDQRELRFEIGEGENLDLPYGLERAIQRMEKGEHSIVYLKPSYAFGSVGKEKFQIPPNAELKYELHLKSFEKAKESWEMNSEEKLEQSTIVKERGTVYFKEGKYKQALLQYKKIVSWLEYESSFSNEEAQKAQALRLASHLNLAMCHLKLQAFSAAIESCNKALELDSNNEKGLFRRGEAHLAVNDFELARADFQKVLQLYPNNKAAKTQLAVCQQRIRRQLAREKKLYANMFERLAEEENKAKAEASSGDHPTDTEMKEEQKSNTAGSQSQVETEA

Legend:
Assay in all cases: co-IP
GFP-DLK (mouse) [1] = molecular target: T1, GFP-DLK (mouse)
DLK K271R mutant (mouse) = molecular target: T2, DLK K271R mutant (mouse)
GFP-DLK (mouse) [2] = molecular target: T1, GFP-DLK (mouse); remark: listed apart in the source

Molecule | binding (GFP-DLK (mouse) [1]) | binding (DLK K271R mutant (mouse)) | binding (GFP-DLK (mouse) [2])
human FKBP8 (from UniProt Q14318 1-412) | binds | – | –
mouse FKBP8 (Flag-tagged) (from UniProt O35465 1-402) | binds | binds | –
B1 | – | – | binds
B2 | – | – | no binding
